The values below come from patent US12617819 (dated 2026).

This data set is described as follows: general procedure: Fmoc solid-phase peptide synthesis; Rink amide MBHA resin (0.31 mmol/g). Particulars: UPLC, TFA.

In the case of “NH2-Cys-Thr-Asn-Met-Leu-Trp-Gln-Val-Phe-Glu-cyclo[Lys-Ala-Arg-Lys-Glu]-Asp-Leu-Tyr-Lys-Ser-Tyr-Asp-Ser-Thr-Phe-Thr-Gly-Gln-Aib-His-H”, the “crude HPLC purity” value was 18.0% (cyclisation step) and 61.6% (whole synthesis, scale of the general procedure 80.0 g resin).
